32 molecules from the supplement of paper PMC10727501 can be followed below.

The list shows a part of the results. Repeats in this data set agree poorly, so a single value says little.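 Free-swimming zebrafish larvae were assessed for O-bend response probability to dark flashes (naive: first five; training: remaining flashes across four 60-flash blocks; test: later 60-flash block) and for OMR turning toward alternating leftward/rightward LED motion. Six treated larvae were compared against sixty 0.1% DMSO controls; hits required |SSMD|≥2.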

The first assay has as its system Danio rerio larvae (5 dpf, TLF). The assay is described as follows: OMR-Perf (SSMD vs DMSO vehicle); higher = higher than vehicle (e.g. higher dark-flash O-bend response probability, or better optomotor performance). Particulars: 10 µM; pre-incubation: 30-90 min.
Molecule `CC(NC(=O)c1ccccc1/N=C/c1c(O)ccc2ccccc12)c1ccccc1` (configuration not stated) [Sirtinol] came in with an OMR-Perf of 0.179.

The molecule `COc1cc(C(=O)NC2CCCNC2)cc(OC)c1OC` (configuration not stated) [Troxipide] came in with an OMR-Perf of 0.225.

`O=C(O)c1cc(/N=N/c2ccc(S(=O)(=O)Nc3ccccn3)cc2)ccc1O` [Sulfasalazine]: the OMR-Perf worked out at 0.54.

For the molecule `O=C(Oc1cc(S(=O)(=O)c2ccccc2)ccc1[N+](=O)[O-])c1ccc(Cl)cc1`, the OMR-Perf is -0.55.

The molecule `CC(=O)CCCCn1c(=O)c2c(ncn2C)n(C)c1=O` [Pentoxifylline] came in with an OMR-Perf of -0.624.

For `Nc1nc(=O)[nH]cc1F` [Flucytosine], the OMR-Perf is -0.0771.

In turn, `CCNC(=O)C1=C(c2ccc(OC)cc2)C(=C2C=C(Cl)C(O)=CC2=O)NN1` yielded an OMR-Perf of -0.294.

Molecule `CC(C)C[C@@H](C(=O)N[C@H](C(=O)OC1CCCC1)c1ccccc1)[C@H](O)C(=O)NO` [Tosedostat (CHR2797)] gave an OMR-Perf of -0.0257.

On to `N=C(N)NS(=O)(=O)c1ccc(N)cc1` [Sulfaguanidine], for which the OMR-Perf was -0.124.

The test system is the same in another assay. The assay is described as follows: Prob-Test (SSMD vs DMSO vehicle); higher = higher than vehicle (e.g. higher dark-flash O-bend response probability, or better optomotor performance). Conditions: 10 µM; pre-incubation: 30-90 min.
As for `NC(=S)NN=Cc1ncccc1N` [Triapine], the Prob-Test turned out to be 0.0817.

In the case of `CCN1CCN(C(=O)N[C@@H](C(=O)N[C@H]2C(=O)N3[C@@H]2SC(C)(C)[C@H]3C(=O)[O-])c2ccccc2)C(=O)C1=O.[Na+]` [Piperacillin Sodium], the Prob-Test was -0.212.

`Br.Br.NCCCCCNCC12CC3CC(CC(C3)C1)C2` [IEM 1754 dihydrobroMide] returned a Prob-Test of 0.166.

Regarding `Cc1cc(C(C)(C)C)c(O)c(C)c1CC1=NCCN1.Cl` [Oxymetazoline HCl], the Prob-Test was -0.176.

The molecule `NC(CO)(CO)CO` [Trometamol] showed a Prob-Test of 0.187.

`CN1CCC[C@@H]1CCO[C@](C)(c1ccccc1)c1ccc(Cl)cc1.O=C(O)/C=C/C(=O)O` [Clemastine Fumarate] registered a Prob-Test of -0.76.

As to `Cl.Clc1ccccc1CN1CCc2sccc2C1` [Ticlopidine HCl], the Prob-Test is -0.933.

The molecule `Cc1cn2cc(C(=O)N(C)CCO)cc(N[C@@H]3CCOc4cccc(C)c43)c2n1` displayed a Prob-Test of 0.336.

Consider `CC(C)Oc1ccc2c(=O)c(-c3ccccc3)coc2c1` [Ipriflavone (Osteofix)], for which the Prob-Test is -1.94.

As to `Cc1cc(Nc2ncnc3ccc(-c4ccc(CNCCS(C)(=O)=O)o4)cc23)ccc1Oc1ccn2ncnc2c1` [HER2-Inhibitor-1], the Prob-Test was found to be 0.404.

`NC(=O)N1c2ccccc2CC(=O)c2ccccc21` [Oxcarbazepine] displayed a Prob-Test of -0.0274.

In turn, `CC1(C)S[C@@H]2[C@H](NC(=O)[C@H](N)c3ccc(O)cc3)C(=O)N2[C@@H]1C(=O)[O-].[Na+]` [Amoxicillin Sodium] displayed a Prob-Test of 0.163.

`Cc1oncc1C(=O)Nc1ccc(C(F)(F)F)cc1` [Leflunomide]: the Prob-Test was -1.78.

As to `CC(C)NCC(O)COc1ccc(COCCOC(C)C)cc1.O=C(O)/C=C/C(=O)O` (configuration not stated) [Bisoprolol fumarate], the Prob-Test stood at 0.109.

`Cc1c(CN2CCN(C(=O)[C@H](C)O)CC2)sc2c(N3CCOCC3)nc(-c3cnc(N)nc3)nc12`: the Prob-Test was found to be 0.21.

Molecule `CC1CCc2c(N3CCC(O)CC3)c(F)cc3c(=O)c(C(=O)O)cn1c23` (configuration not stated) [Nadifloxacin] displayed a Prob-Test of -0.78.

Regarding `CC1CCN(CC[C@H]2CCCN2S(=O)(=O)c2cccc(O)c2)CC1.Cl`, the Prob-Test is -1.37.

For `CC[C@]1(O)C[C@@H]2C[N@](CCc3c([nH]c4ccccc34)[C@@](C(=O)OC)(c3cc4c(cc3OC)N(C)[C@@H]3C45CCN4CC=C[C@](CC)([C@H]45)[C@H](OC(C)=O)[C@]3(O)C(=O)OC)C2)C1` (some centres not stated) [Vinblastine], the Prob-Test was -0.313.

In the case of `C#CCN(C)CCCOc1ccc(Cl)cc1Cl.Cl` [Clorgyline HCl], the Prob-Test was -1.97.

Consider `CC(C)[C@H](CNC(=O)[C@@H](NC(=O)c1cccc(-c2ccccc2)n1)[C@@H](C)O)B(O)O`, for which the Prob-Test is -1.45.

As to `Cn1c(=O)cc(N2CCC[C@@H](N)C2)n(Cc2ccccc2C#N)c1=O` [Alogliptin], the Prob-Test was 0.542.

In the case of `N#CC[C@@H](C1CCCC1)n1cc(-c2ncnc3[nH]ccc23)cn1`, the Prob-Test was 0.0152.

`O=C(NC(NC(=S)Nc1ccc(F)c([N+](=O)[O-])c1)C(Cl)(Cl)Cl)C(c1ccccc1)c1ccccc1` (configuration not stated): the Prob-Test worked out at 0.603.
